Assay results: patent US20150322414A1 (UNITED KINGDOM RESEARCH AND INNOVATION, published 2015)
These are yes or no findings as the source states them, for the method shown. Some entries that bind do so weakly or less than the wild type.

Key:
Angiopoietin-2 [1] = target: T1, Angiopoietin-2 (human, UniProt O15123 19-496, limits assumed); experiment: ELISA, Ang2 immobilised
T1 construct: also called Ang2; biotinylated Ang2
T1 sequence (looked up): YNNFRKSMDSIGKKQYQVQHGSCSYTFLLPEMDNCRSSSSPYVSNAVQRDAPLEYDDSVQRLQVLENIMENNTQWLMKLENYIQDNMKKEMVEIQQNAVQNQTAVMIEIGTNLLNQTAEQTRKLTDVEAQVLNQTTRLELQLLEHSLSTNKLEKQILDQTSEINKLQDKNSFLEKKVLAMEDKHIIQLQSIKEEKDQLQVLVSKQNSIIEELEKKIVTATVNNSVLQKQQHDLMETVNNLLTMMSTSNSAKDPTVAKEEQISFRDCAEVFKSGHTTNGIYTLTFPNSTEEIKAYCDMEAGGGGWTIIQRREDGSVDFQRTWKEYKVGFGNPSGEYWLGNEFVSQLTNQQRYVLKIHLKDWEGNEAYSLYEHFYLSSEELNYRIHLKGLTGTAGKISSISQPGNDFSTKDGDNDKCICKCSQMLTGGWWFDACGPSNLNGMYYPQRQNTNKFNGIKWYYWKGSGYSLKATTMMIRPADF

Angiopoietin-2 [2] = target: T1, Angiopoietin-2; experiment: ELISA, 5 µg/ml Ang2 immobilised, ectodomain-Fc 0-10 µg/ml, anti-Tie2 ectodomain antibody detection
Angiopoietin-2 [3] = target: T1, Angiopoietin-2; experiment: SPR as named in the filing, panel headed 'Binding of R3 and R3 I161G binding to Ang2', concentrations not given
Experimental: Surface plasmon resonance was performed using a ForteBio Octet instrument (Pall Life Sciences). Fusion proteins were immobilised at 5 μg/ml on sensors and kinetic binding assays perfoinied as detailed by the manufacturer.

Angiopoietin-2 [4] = target: T1, Angiopoietin-2; experiment: SPR as named in the filing (ForteBio Octet), ectodomain-Fc immobilised on the sensor, Ang2 in solution, concentrations not given
Angiopoietin-2 [5] = target: T1, Angiopoietin-2; experiment: SPR (ForteBio Octet), ectodomain-Fc immobilised
Angiopoietin-2 [6] = target: T1, Angiopoietin-2; experiment: SPR
Angiopoietin-2 [7] = target: T1, Angiopoietin-2; experiment: ELISA on immobilised Ang2, ectodomain 0-50 µg/ml

Measured: binding

F161I Tie2 ectodomain-Fc fusion protein (from UniProt Q02763 23-442)
binds: Angiopoietin-2 [1] | Angiopoietin-2 [2]

B1: Evolved (R3) Tie2 ectodomain-Fc fusion protein (F161I, ΔR167, ΔH168) (Fc fusion)
chain (part 1 of 2): AMDLILINSLPLVSDAETSLTCIASGWRPHEPITIGRDFEALMNQHQDPLEVTQDVTREWAKKVVWKREKASKINGAYFCEGRVRGEAIRIRTMKMRQQASFLPATLTMTVDKGDNVNISFKKVLIKEEDAVIYKNGSIIHSVPEVPDILEVHLPHAQPQDAGVYSARYIGGNLFTSAFTRLIVRRCEAQKWGPECNHLCTACMNNGVCHEDTGECICPPGFMGRTCEKACELHTFGRTCKERCSGQEGCKSYVFCLPDPYGCSCATGWKGLQCNEACHPGFYGPDCKLRCSCNNGEMCDRFQGCLCSPGWQGLQCEREGIQRMTPKIVDLPDHIEVNSGKFNPICKASGWPLPTNEEMTLVKPDGTVLHPKDFNHTDHFSVAIFTIHRILPPDSGVWVCSVNTVAGMVEKPFNISVK
chain (part 2 of 2): HHHHHH
notes: also called R3 ectodomain; evolved ectodomain; not shown: human Fc tag
not listed: Angiopoietin-2 [2]
binds: all other assays above

B2: Wild-type Tie2 ectodomain (1-442)-Fc fusion protein (Fc fusion)
chain (part 1 of 2): AMDLILINSLPLVSDAETSLTCIASGWRPHEPITIGRDFEALMNQHQDPLEVTQDVTREWAKKVVWKREKASKINGAYFCEGRVRGEAIRIRTMKMRQQASFLPATLTMTVDKGDNVNISFKKVLIKEEDAVIYKNGSFIHSVPRHEVPDILEVHLPHAQPQDAGVYSARYIGGNLFTSAFTRLIVRRCEAQKWGPECNHLCTACMNNGVCHEDTGECICPPGFMGRTCEKACELHTFGRTCKERCSGQEGCKSYVFCLPDPYGCSCATGWKGLQCNEACHPGFYGPDCKLRCSCNNGEMCDRFQGCLCSPGWQGLQCEREGIQRMTPKIVDLPDHIEVNSGKFNPICKASGWPLPTNEEMTLVKPDGTVLHPKDFNHTDHFSVAIFTIHRILPPDSGVWVCSVNTVAGMVEKPFNISVK
chain (part 2 of 2): HHHHHH
notes: Secreted from HEK293 cells, about 80 kDa, purified on Ni-NTA; also called wild-type ectodomain; Wt; not shown: human Fc tag
binds: Angiopoietin-2 [4] | Angiopoietin-2 [5] | Angiopoietin-2 [1] | Angiopoietin-2 [2]
